The list is a part of this screen's results and no random one: it is rich in T/C values a quarter to a half above the control, in often repeated tests (any T/C) and in doses without a T/C. Other doses and runs of a compound stand elsewhere. T/C gives the treated animals as a percentage of the vehicle group. Some doses have a count of surviving animals in place of a T/C: the source holds a T/C of zero for them, seemingly a mark for toxic or unscored doses. Some doses without a T/C left all or most animals alive at the check, yet need not have been tolerated: survival well below the control is almost never listed, so the zero probably covers shortened survival too. Survivors were counted at the toxicity check, usually on the fifth day, unless a day is given; later deaths do not show. Schedules are NCI's codes, read here as Q, the interval in days (D) or hours (H), X, the number of doses. Where survival is the endpoint, this PubChem deposit counts one and a half times the control or more as active, and values a quarter to a half above the control carry no call in these data; other NCI protocols may use other cut-offs. Some entries hold several experiments; the results are listed from low to high.

The test system of this assay is CD2F1 mice, L1210 leukemia ip, survival T/C. Put plainly: NCI In Vivo Anticancer Drug Screen. Data for tumor model L1210 Leukemia (intraperitoneal) in CD2F1 (CDF1) mice. The note with it: higher T/C = longer survival. The protocol: The antitumor activity of compounds was measured in mice bearing transplantable tumors. Survival or tumor size were measured and the results are expressed as the measurement made in the treated group (T) divided by the measurement made in the vehicle treated control group (C). The tumor model used in this assay is L1210 Leukemia (intraperitoneal) in CD2F1 (CDF1) mice

Where [1] appears, read: T/C endpoint: mean survival time, dose: 200.0 mg/kg/injection, schedule: Q04DX003 (ip), vehicle: saline with Tween-80.
The mark [2] stands for this setting: T/C endpoint: mean survival time, dose: 100.0 mg/kg/injection, schedule: Q04DX002 (ip), vehicle: saline.
The mark [3] stands for this setting: T/C endpoint: mean survival time, dose: 200.0 mg/kg/injection, schedule: Q01DX009 (ip), vehicle: saline with Tween-80.
Setting [4] is: T/C endpoint: mean survival time, dose: 400.0 mg/kg/injection, schedule: Q01DX009 (ip), vehicle: saline with Tween-80.
Setting [5] is: T/C endpoint: mean survival time, dose: 400.0 mg/kg/injection, schedule: Q04DX003 (ip), vehicle: saline with Tween-80.
[6] abbreviates: T/C endpoint: mean survival time, dose: 200.0 mg/kg/injection, schedule: Q04DX002 (ip), vehicle: saline.
[7] abbreviates: T/C endpoint: mean survival time, dose: 400.0 mg/kg/injection, schedule: Q04DX002 (ip), vehicle: saline.
The mark [8] stands for this setting: T/C endpoint: median survival time, dose: 800.0 mg/kg/injection, schedule: Q01DX005 (ip), vehicle: saline.
Where [9] appears, read: T/C endpoint: mean survival time, dose: 100.0 mg/kg/injection, schedule: Q04DX003 (ip), vehicle: saline with Tween-80.
Setting [10] is: T/C endpoint: mean survival time, dose: 400.0 mg/kg/injection, schedule: Q01DX001 (ip), vehicle: saline.

With `O=C(N=C1OC2C(OC(=O)c3ccccc3)C(COC(=O)c3ccccc3)OC2N1C(=O)c1ccccc1)c1ccccc1` (stereo not drawn), the survivor count (T/C endpoint: mean survival time, dose: 400.0 mg/kg/injection, schedule: Q01DX009 (ip), vehicle: saline) is 3 of 6.

As to `N/C(=N/N=C/c1cc(Br)cc(Br)c1O)NO`, the survivor count (T/C endpoint: median survival time, dose: 200.0 mg/kg/injection, schedule: Q01DX005 (ip), vehicle: suspension in saline) is reported as 3 of 6.

For `CCOC(=O)c1ncsc1NC(=O)NC`, for the setting “T/C endpoint: mean survival time, dose: 300.0 mg/kg/injection, schedule: Q01DX001 (ip), vehicle: saline”, the survivor count was 1 of 6.

Regarding `Nc1nc(N)nc(NC(=O)COc2cc(Cl)c(Cl)cc2Cl)n1`, under setting [1], the survivor count was 6 of 6.

Take `Nc1nc(N)n2nnnc2c1[N+](=O)[O-]`: the survivor count by setting is: (T/C endpoint: mean survival time, dose: 200.0 mg/kg/injection, schedule: Q01DX001 (ip), vehicle: carboxymethylcellulose (CMC)) 1 of 6; (T/C endpoint: mean survival time, dose: 400.0 mg/kg/injection, schedule: Q01DX001 (ip), vehicle: carboxymethylcellulose (CMC)) 0 of 6.

With `c1cc2c(c(OCC3=NCCN3)c1)CCCC2`, the survivor count under setting [2] is given as 0 of 3.

Turning to `C=CCOC(=O)Oc1ccccc1Cl`, the survivor count reads like this: under setting [3], 6 of 6; under setting [4], 0 of 6; under setting [5], 0 of 6.

Regarding `NC(=O)c1ccc[n+](CCc2c[nH]c3ccccc23)c1`, the survivor count runs as follows: (T/C endpoint: mean survival time, dose: 150.0 mg/kg/injection, schedule: Q04DX003 (ip), vehicle: saline with Tween-80) 5 of 6; (T/C endpoint: mean survival time, dose: 300.0 mg/kg/injection, schedule: Q04DX003 (ip), vehicle: saline with Tween-80) 1 of 6.

On to `N[C@@H](C[C@H]1CCC(=O)[C@@H]2O[C@H]12)C(=O)O`, for which the T/C runs as follows: under setting [6], 130 and 136 % of control; under setting [7], 130 % of control; (T/C endpoint: mean survival time, dose: 600.0 mg/kg/injection, schedule: Q04DX002 (ip), vehicle: saline) 139 % of control; (T/C endpoint: median survival time, dose: 200.0 mg/kg/injection, schedule: Q01DX005 (ip), vehicle: saline) 128 and 131 % of control; (T/C endpoint: median survival time, dose: 400.0 mg/kg/injection, schedule: Q01DX005 (ip), vehicle: saline) 127, 133, 142 % of control; (T/C endpoint: median survival time, dose: 480.0 mg/kg/injection, schedule: Q01DX005 (ip), vehicle: saline) 130 % of control. The T/C (T/C endpoint: median survival time, dose: 666.67 mg/kg/injection, schedule: Q01DX005 (ip), vehicle: saline) is 136 % of control and the T/C under setting [8] is 129 % of control. Also, the survivor count is on record as 0 of 6 under setting [8] and 0 of 6 (T/C endpoint: median survival time, dose: 1111.11 mg/kg/injection, schedule: Q01DX005 (ip), vehicle: saline).

As to `[Cl][Pt+2][Cl].[NH-]C1CCC1.[NH2-]`, the T/C by setting is: (T/C endpoint: mean survival time, dose: 0.78 mg/kg/injection, schedule: Q04DX003 (ip), vehicle: water) 128 % of control; (T/C endpoint: mean survival time, dose: 1.56 mg/kg/injection, schedule: Q04DX003 (ip), vehicle: water) 132 % of control; (T/C endpoint: mean survival time, dose: 3.12 mg/kg/injection, schedule: Q04DX003 (ip), vehicle: saline) 126 % of control; (T/C endpoint: median survival time, dose: 0.75 mg/kg/injection, schedule: Q01DX009 (ip), vehicle: saline) 136 and 144 % of control; (T/C endpoint: median survival time, dose: 0.75 mg/kg/injection, schedule: Q01DX009 (ip), vehicle: suspension in saline) 134 % of control; (T/C endpoint: median survival time, dose: 1.5 mg/kg/injection, schedule: Q01DX009 (ip), vehicle: suspension in saline) 146 % of control. For the same compound, the T/C (T/C endpoint: median survival time, dose: 6.0 mg/kg/injection, schedule: Q01DX009 (ip), vehicle: suspension in saline) is 132 % of control. Also, the survivor count is 2 of 6 (T/C endpoint: mean survival time, dose: 12.5 mg/kg/injection, schedule: Q04DX003 (ip), vehicle: distilled water + Tween-80); 4 of 6 (T/C endpoint: mean survival time, dose: 12.5 mg/kg/injection, schedule: Q04DX003 (ip), vehicle: water); 0 of 6 (T/C endpoint: mean survival time, dose: 25.0 mg/kg/injection, schedule: Q04DX003 (ip), vehicle: distilled water + Tween-80); 2 of 6 (T/C endpoint: mean survival time, dose: 50.0 mg/kg/injection, schedule: Q04DX003 (ip), vehicle: distilled water + Tween-80); 0 of 6 (T/C endpoint: mean survival time, dose: 100.0 mg/kg/injection, schedule: Q04DX003 (ip), vehicle: distilled water + Tween-80); 0 of 6 (T/C endpoint: mean survival time, dose: 200.0 mg/kg/injection, schedule: Q04DX003 (ip), vehicle: distilled water + Tween-80). In addition, the survivor count (T/C endpoint: median survival time, dose: 12.0 mg/kg/injection, schedule: Q01DX009 (ip), vehicle: saline) is 6 of 6 and the survivor count (T/C endpoint: median survival time, dose: 24.0 mg/kg/injection, schedule: Q01DX009 (ip), vehicle: suspension in saline) is listed as 6 of 6.

Consider `CN(C)N=Nc1c(F)cc(F)cc1F`, for which the T/C (T/C endpoint: mean survival time, dose: 100.0 mg/kg/injection, schedule: Q01DX009 (ip), vehicle: saline with Tween-80) is 131 % of control. Under setting [4], the survivor count was 2 of 6.

On to `Cc1ccc(NC(=O)NCCCCCCNC(=O)Nc2ccc(C)c(Cl)c2)cc1Cl`, for which the survivor count (T/C endpoint: mean survival time, dose: 200.0 mg/kg/injection, schedule: Q01DX001 (ip), vehicle: saline with Tween-80) is on record as 6 of 6.

With `O=C(O)c1ccccc1C(c1ccccc1)c1ccccc1`, under setting [3], the survivor count is listed as 2 of 6.

With `O=C(O)c1c(Sc2ccccc2)cccc1Sc1ccccc1`, the survivor count (T/C endpoint: mean survival time, dose: 100.0 mg/kg/injection, schedule: Q04DX002 (ip), vehicle: saline with Tween-80) is recorded as 2 of 3.

As for `COc1cc(/C=C\[N+](=O)[O-])c([N+](=O)[O-])cc1OCc1ccccc1`, the survivor count (T/C endpoint: mean survival time, dose: 400.0 mg/kg/injection, schedule: Q01DX001 (ip), vehicle: saline with Tween-80) is listed as 0 of 6.

With `O=NC1C(=O)C2CC1CC2C(=O)OC(=O)C1CC2CC1C(=O)C2N=O` (stereo not drawn), the survivor count (T/C endpoint: mean survival time, dose: 300.0 mg/kg/injection, schedule: Q01DX001 (ip), vehicle: other) is 0 of 6.

Regarding `CCOC(=O)/C(C(C)=N)=C(\C)O`, the survivor count under setting [4] is listed as 2 of 6.

With `O=[N+]([O-])c1ccc(Sc2ccc(Cl)cc2)cc1`, under setting [4], the survivor count is 6 of 6.

Consider `COC(=O)C#CC(N)=O`, for which the survivor count by setting is: (T/C endpoint: mean survival time, dose: 10.0 mg/kg/injection, schedule: Q04DX003 (ip), vehicle: saline sonified) 0 of 6; (T/C endpoint: mean survival time, dose: 20.0 mg/kg/injection, schedule: Q04DX003 (ip), vehicle: saline sonified) 0 of 6; under setting [9], 0 of 6; under setting [1], 0 of 6; under setting [5], 0 of 6.

As to `CC(CN(C)C)C(=O)c1ccccc1` (stereo not drawn), the survivor count runs as follows: under setting [2], 3 of 3; under setting [6], 3 of 3; under setting [7], 0 of 3.

As for `CCCCCCCCCCCCCCCC(=O)Oc1ccc(/C(CC)=C(/CC)c2ccc(OC(=O)CCCCCCCCCCCCCCC)cc2)cc1`, the survivor count by setting is: (T/C endpoint: mean survival time, dose: 25.0 mg/kg/injection, schedule: Q01DX009 (ip), vehicle: saline with Tween-80) 6 of 6; (T/C endpoint: mean survival time, dose: 50.0 mg/kg/injection, schedule: Q01DX009 (ip), vehicle: saline with Tween-80) 6 of 6.

`C/C=C(\NC1CCCCC1)C(=O)c1ccccc1`: the survivor count (T/C endpoint: mean survival time, dose: 400.0 mg/kg/injection, schedule: Q01DX009 (ip), vehicle: Klucel (hydroxypropylcellulose) (HPC)) is given as 3 of 6.

As to `CCOC(=O)C(CC1OCCO1)C1=NC(C)(C)CC(C)O1` (stereo not drawn), the survivor count (T/C endpoint: mean survival time, dose: 400.0 mg/kg/injection, schedule: Q01DX001 (ip), vehicle: acetone) is on record as 2 of 6.

With `CC(=O)/C=C/Sc1n[nH]c(=O)[nH]c1=O`, where the note is “T/C endpoint: mean survival time, dose: 200.0 mg/kg/injection, schedule: Q01DX005 (ip), vehicle: distilled water + Tween-80”, the survivor count is on record as 0 of 6.

With `CNC(=S)C(=S)NC`, the survivor count reads like this: under setting [9], 5 of 6; under setting [1], 0 of 6.

With `C#CC(O)CCC` (stereo not drawn), the survivor count under setting [10] is reported as 0 of 3.

For `Cc1cccc[n+]1CC[n+]1ccccc1C`, under setting [10], the survivor count is reported as 2 of 6.

These data come from PubChem BioAssay AID256 (DTP/NCI, 2004).
